According to publication PMC7671692:
Results are given in words; binding and its absence hold for the method and conditions named. Binding seen in cells or lysates may run through a third protein. Some results given as binding are weak or reduced against the parent protein; the word gives no strength.

Chains of the proteins cited; added tags and fusions are not shown. Residues count along the entry.
UniProt Q9UQ35, residues 1-2748: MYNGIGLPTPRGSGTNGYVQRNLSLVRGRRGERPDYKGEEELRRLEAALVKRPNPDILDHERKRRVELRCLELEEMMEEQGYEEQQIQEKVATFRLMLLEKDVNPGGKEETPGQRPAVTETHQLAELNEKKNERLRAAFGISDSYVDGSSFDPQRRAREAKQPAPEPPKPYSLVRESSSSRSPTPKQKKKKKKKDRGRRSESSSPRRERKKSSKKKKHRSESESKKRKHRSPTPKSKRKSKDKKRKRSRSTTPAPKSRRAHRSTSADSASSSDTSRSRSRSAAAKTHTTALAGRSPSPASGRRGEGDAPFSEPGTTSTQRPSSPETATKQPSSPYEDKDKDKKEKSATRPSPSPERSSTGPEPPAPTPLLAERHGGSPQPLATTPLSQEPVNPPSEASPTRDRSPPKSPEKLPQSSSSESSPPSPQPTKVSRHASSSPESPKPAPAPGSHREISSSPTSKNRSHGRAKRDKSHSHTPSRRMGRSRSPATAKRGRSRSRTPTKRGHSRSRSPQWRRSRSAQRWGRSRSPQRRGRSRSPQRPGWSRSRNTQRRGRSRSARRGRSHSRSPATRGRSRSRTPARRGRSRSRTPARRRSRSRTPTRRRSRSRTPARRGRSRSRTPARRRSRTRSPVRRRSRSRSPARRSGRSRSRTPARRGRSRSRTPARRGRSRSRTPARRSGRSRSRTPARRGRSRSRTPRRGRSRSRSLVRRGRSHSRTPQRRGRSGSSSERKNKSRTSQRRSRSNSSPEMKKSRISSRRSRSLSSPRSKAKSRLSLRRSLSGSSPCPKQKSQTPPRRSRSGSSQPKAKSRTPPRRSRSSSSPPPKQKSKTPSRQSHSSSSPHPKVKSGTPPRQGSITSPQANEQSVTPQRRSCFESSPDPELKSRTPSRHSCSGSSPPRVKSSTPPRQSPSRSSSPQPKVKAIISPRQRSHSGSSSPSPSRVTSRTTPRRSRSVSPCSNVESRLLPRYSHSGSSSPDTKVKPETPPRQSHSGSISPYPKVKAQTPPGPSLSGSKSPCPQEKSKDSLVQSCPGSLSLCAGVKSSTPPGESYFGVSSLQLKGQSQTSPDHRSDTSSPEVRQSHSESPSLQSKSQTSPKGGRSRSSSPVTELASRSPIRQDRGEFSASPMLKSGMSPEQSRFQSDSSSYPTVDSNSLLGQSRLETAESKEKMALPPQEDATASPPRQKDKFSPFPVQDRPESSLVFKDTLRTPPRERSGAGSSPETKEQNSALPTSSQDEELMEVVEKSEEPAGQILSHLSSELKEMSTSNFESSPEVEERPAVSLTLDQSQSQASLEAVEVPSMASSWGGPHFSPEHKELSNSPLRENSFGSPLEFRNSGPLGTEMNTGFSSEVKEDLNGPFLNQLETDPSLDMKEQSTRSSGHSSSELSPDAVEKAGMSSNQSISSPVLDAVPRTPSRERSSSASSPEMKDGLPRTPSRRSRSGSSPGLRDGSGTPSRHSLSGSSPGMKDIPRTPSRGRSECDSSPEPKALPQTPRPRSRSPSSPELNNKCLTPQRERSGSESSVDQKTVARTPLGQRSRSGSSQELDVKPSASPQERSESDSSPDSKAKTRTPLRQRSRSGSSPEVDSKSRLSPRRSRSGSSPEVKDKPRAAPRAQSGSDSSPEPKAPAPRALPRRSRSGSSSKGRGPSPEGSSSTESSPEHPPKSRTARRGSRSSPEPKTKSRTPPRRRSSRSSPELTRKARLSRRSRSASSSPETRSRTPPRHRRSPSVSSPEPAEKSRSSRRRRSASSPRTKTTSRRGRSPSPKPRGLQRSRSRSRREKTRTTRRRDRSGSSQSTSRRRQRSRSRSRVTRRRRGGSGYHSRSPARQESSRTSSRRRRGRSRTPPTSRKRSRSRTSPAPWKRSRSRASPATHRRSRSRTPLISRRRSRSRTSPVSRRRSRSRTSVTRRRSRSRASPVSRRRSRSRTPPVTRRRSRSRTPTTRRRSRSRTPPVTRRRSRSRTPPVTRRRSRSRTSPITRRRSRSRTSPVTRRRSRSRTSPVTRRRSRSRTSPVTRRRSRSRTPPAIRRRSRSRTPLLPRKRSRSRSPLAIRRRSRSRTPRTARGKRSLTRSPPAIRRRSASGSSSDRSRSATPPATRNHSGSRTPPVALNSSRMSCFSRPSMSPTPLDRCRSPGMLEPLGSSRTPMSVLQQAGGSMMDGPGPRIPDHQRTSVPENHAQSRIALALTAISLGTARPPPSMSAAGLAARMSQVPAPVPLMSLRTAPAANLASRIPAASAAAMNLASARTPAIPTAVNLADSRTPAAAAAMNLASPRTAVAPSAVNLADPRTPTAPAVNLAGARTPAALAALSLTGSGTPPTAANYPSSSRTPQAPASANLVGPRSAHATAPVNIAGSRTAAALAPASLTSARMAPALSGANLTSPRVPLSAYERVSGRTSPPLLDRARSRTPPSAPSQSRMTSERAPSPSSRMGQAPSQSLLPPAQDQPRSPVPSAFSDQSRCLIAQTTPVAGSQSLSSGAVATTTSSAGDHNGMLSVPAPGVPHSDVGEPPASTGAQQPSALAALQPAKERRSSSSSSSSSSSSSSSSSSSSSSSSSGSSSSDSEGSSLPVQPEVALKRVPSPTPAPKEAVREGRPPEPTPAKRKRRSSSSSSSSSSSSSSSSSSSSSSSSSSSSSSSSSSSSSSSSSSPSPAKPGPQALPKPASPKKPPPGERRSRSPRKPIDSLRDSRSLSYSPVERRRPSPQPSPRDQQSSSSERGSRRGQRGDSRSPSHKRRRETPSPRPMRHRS

Target: SRRM2^tr0 (SRRM2 truncation 0, TagGFP2 fusion, near-full-length) (human) (UniProt Q9UQ35)
Assay: co-IP; GFP-trap agarose beads on whole-cell lysates of HAP1 cell lines with TagGFP2-tagged SRRM2 alleles (wild-type lysate as negative control), overnight in the cold-room; washes with 1x NLB, briefly HSB (1M NaCl), NDB; eluates immunoblotted

binding: binds
B1: SRRM1 (protein, UniProt Q8IYB3 1-904)
chain: MDAGFFRGTSAEQDNRFSNKQKKLLKQLKFAECLEKKVDMSKVNLEVIKPWITKRVTEILGFEDDVVIEFIFNQLEVKNPDSKMMQINLTGFLNGKNAREFMGELWPLLLSAQENIAGIPSAFLELKKEEIKQRQIEQEKLASMKKQDEDKDKRDKEEKESSREKRERSRSPRRRKSRSPSPRRRSSPVRRERKRSHSRSPRHRTKSRSPSPAPEKKEKTPELPEPSVKVKEPSVQEATSTSDILKVPKPEPIPEPKEPSPEKNSKKEKEKEKTRPRSRSRSKSRSRTRSRSPSHTRPRRRHRSRSRSYSPRRRPSPRRRPSPRRRTPPRRMPPPPRHRRSRSPVRRRRRSSASLSGSSSSSSSSRSRSPPKKPPKRTSSPPRKTRRLSPSASPPRRRHRPSPPATPPPKTRHSPTPQQSNRTRKSRVSVSPGRTSGKVTKHKGTEKRESPSPAPKPRKVELSESEEDKGGKMAAADSVQQRRQYRRQNQQSSSDSGSSSSSEDERPKRSHVKNGEVGRRRRHSPSRSASPSPRKRQKETSPRGRRRRSPSPPPTRRRRSPSPAPPPRRRRTPTPPPRRRTPSPPPRRRSPSPRRYSPPIQRRYSPSPPPKRRTASPPPPPKRRASPSPPPKRRVSHSPPPKQRSSPVTKRRSPSLSSKHRKGSSPSRSTREARSPQPNKRHSPSPRPRAPQTSSSPPPVRRGASSSPQRRQSPSPSTRPIRRVSRTPEPKKIKKAASPSPQSVRRVSSSRSVSGSPEPAAKKPPAPPSPVQSQSPSTNWSPAVPVKKAKSPTPSPSPPRNSDQEGGGKKKKKKKDKKHKKDKKHKKHKKHKKEKAVAAAAAAAVTPAAIAAATTTLAQEEPVAAPEPKKETESEAEDNLDDLEKHLREKALRSMRKAQVSPQS
